Data from paper PMC6802197.

What was measured:
[1] = molecular target: PFV integrase (intasome tetramer), WT (Prototype foamy virus) (UniProt P14350); assay: native gel electrophoresis; conditions: Atto532-labeled intasome reacted with supercoiled pBR322; Intasome 10 nM (bulk gel kinetics 25 nM), 37 C for AFM; Mg2+ reaction buffer (apparently 125 mM NaOAc, 5 mM Mg(OAc)2, 25 mM Tris-HCl pH 7.4); recombinant protein; protein details: His tag removed with HRV3C protease; label: 5'-Atto532 on S1
[2] = molecular target: PFV integrase (intasome tetramer), WT (Prototype foamy virus) (UniProt P14350); assay: size-exclusion chromatography (intasome assembly); conditions: Zn2+; Intasome 10 nM (bulk gel kinetics 25 nM), 37 C for AFM; Mg2+ reaction buffer (apparently 125 mM NaOAc, 5 mM Mg(OAc)2, 25 mM Tris-HCl pH 7.4); recombinant protein; protein details: His tag removed with HRV3C protease

Sequence	binding result [1]	binding result [2]
TGCGAAATTCCATGACA / ATTGTCATGGAATTTCGCA [Atto532 viral DNA end mimetic]	binds	
TGCGAAATTCCATGACA / ATTGTCATGGAATTTCGCA [3'-processed viral DNA end mimetic]		binds

Construct, isoform or probe ends are uncertain for at least one entry. At least one verdict rests on a figure or table, not on a statement of the authors.
